Results from PMC3621862 (PLoS ONE, 2013).

Assay: peptide made by a vendor (peptide synthesis; Rink amide MBHA resin (0.56 mmol/g, 100–200 mesh); HBTU/NMM)
Details: whole synthesis, scale of the general procedure 50 μmol

Substance: Chlorambucil-[ξCha][dR][ξCha][dR][ξCha][dR]-NH2 (SMILES N=C(N)NCCC[C@@H](NC(=O)C(CC1CCCCC1)NC(=O)[C@@H](CCCNC(=N)N)NC(=O)C(CC1CCCCC1)NC(=O)[C@@H](CCCNC(=N)N)NC(=O)C(CC1CCCCC1)NC(=O)CCCc1ccc(N(CCCl)CCCl)cc1)C(N)=O)
- final purity (method not given): >90%

Square brackets hold non-standard residues; d marks the D form. * marks the point of attachment. ξ: configuration not given here. Chlorambucil = O=C(CCCc1ccc(N(CCCl)CCCl)cc1)*; ξCha = NC(CC1CCCCC1)C(=O)O
